Source: PubChem BioAssay (Tox21)
All entries are inconclusive by the source's own rule. Clear calls are listed elsewhere. Unless noted, the call rests on the fitted dose curve; in most records, active means well fitted curve in the direction sought with a large enough effect in the repeat runs; inconclusive means weak or mixed curves; inactive means no such curve, though single readings can be large; an effect the other way counts as inactive or inconclusive.

The chains behind the UniProt entries cited, without tags or fusion partners.
UniProt P19793, whole entry: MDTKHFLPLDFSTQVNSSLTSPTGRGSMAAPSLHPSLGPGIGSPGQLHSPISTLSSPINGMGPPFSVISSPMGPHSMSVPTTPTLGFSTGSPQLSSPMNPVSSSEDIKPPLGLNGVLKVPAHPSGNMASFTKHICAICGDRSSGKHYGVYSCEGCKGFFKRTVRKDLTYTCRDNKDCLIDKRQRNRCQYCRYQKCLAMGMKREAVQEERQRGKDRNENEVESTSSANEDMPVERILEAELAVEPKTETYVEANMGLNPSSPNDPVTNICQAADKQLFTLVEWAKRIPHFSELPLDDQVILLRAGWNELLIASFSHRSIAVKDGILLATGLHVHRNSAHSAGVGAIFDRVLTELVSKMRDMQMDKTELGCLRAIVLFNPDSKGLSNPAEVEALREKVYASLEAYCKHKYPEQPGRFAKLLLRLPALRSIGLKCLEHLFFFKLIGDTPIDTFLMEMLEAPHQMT
UniProt P06401, whole entry: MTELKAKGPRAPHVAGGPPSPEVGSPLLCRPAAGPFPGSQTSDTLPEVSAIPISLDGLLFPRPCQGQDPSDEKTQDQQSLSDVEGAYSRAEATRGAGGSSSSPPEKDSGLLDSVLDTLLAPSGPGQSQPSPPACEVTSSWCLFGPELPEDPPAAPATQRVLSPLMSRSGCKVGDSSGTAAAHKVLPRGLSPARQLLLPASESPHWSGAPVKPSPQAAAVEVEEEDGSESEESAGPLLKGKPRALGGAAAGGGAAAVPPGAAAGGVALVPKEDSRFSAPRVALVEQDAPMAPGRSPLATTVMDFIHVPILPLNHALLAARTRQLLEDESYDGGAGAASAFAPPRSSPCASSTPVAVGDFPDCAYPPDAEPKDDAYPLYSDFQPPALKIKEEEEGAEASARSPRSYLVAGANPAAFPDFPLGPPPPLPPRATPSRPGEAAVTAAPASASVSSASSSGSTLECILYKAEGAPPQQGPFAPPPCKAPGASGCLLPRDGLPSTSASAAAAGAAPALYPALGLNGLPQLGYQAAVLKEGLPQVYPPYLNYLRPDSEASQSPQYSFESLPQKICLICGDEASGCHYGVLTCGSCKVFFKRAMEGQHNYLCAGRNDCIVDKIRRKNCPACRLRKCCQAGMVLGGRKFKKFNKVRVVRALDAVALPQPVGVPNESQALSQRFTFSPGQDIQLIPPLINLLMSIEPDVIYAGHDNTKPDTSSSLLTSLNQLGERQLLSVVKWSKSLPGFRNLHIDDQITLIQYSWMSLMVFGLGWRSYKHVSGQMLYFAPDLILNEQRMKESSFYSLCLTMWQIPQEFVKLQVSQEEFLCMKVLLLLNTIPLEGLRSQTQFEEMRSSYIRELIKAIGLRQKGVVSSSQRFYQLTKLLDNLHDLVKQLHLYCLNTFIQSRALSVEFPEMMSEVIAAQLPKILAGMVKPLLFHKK
UniProt P05177, whole entry: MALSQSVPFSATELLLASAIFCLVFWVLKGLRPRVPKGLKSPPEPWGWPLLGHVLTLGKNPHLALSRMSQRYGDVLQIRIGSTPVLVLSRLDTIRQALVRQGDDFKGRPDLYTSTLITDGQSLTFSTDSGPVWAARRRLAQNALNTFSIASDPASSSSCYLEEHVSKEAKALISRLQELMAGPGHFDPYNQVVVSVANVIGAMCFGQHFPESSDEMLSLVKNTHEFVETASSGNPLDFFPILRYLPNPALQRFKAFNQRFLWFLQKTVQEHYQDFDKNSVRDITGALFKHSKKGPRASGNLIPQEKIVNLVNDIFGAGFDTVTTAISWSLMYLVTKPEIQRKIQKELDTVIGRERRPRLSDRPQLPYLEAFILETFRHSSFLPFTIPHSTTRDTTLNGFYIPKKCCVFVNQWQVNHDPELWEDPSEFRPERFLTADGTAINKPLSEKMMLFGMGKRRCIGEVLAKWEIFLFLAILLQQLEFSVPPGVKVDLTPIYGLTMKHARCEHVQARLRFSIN
UniProt P03372, whole entry: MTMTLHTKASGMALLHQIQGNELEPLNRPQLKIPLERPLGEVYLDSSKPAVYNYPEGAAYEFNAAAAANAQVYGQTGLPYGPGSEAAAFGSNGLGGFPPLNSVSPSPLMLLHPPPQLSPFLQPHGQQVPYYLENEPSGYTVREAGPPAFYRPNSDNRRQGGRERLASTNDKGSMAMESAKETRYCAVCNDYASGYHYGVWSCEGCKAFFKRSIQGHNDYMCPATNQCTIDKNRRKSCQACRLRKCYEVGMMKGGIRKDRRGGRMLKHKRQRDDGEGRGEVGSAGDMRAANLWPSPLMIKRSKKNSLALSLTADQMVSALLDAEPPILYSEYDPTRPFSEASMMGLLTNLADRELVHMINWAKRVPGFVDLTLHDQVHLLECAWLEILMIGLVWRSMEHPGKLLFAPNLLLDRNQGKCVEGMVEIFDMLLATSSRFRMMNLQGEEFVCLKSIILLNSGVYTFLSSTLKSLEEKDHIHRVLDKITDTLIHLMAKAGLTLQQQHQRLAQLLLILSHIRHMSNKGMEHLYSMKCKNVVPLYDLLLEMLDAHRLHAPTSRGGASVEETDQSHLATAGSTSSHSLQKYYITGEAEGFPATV
UniProt O75469, whole entry: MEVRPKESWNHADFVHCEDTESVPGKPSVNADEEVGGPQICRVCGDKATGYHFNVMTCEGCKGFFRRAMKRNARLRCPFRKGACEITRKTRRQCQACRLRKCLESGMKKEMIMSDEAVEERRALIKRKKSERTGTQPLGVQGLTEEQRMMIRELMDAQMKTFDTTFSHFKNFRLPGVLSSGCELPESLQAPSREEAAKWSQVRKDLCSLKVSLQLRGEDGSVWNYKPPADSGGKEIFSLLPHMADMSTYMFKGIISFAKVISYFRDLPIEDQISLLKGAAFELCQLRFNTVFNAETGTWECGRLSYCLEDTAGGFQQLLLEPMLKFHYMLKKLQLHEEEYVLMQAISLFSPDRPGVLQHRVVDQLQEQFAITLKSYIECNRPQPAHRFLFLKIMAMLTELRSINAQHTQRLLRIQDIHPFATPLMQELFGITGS

Tests used:
[1] = qHTS assay to identify small molecule antagonists of the estrogen receptor alpha (ER-alpha) signaling pathway - cell viability counter screen (AID 743074; calls by dose curve; further: potency means the concentration at half of the fitted maximal effect; nearly all actives have a fitted effect of over 45% in size); details: ERalpha-bla HEK293 viability, CellTiter-Glo luminescence, 18 h
[2] = target: Nuclear receptor ROR-gamma (Homo sapiens) (UniProt P51449); experiment: qHTS assay to identify small molecule antagonists of the retinoid-related orphan receptor gamma (ROR-gamma) signaling pathway (AID 1159521; further: potency means the concentration at half of the fitted maximal effect; nearly all actives have a fitted effect of over 50% in size); details: Tet-on RORgamma CHO cells, RORE-luciferase, 16 h
[3] = target: Retinoic acid receptor RXR-alpha (Homo sapiens) (UniProt P19793); experiment: qHTS assay to identify small molecule agonists of the RXR signaling pathway (AID 1159527; calls by dose curve; further: potency means the concentration at half of the fitted maximal effect; nearly all actives have a fitted effect of over 35% in size); details: HEK293T RXRa-UAS-bla, beta-lactamase ratio, 16 h; activation: at 35.3 µM (top of the series)
Outline: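 GeneBLAzer RXR-alpha-UAS-bla HEK 293T cells in 2% charcoal-stripped FBS medium were exposed to compounds for 16 hr at 37 C in agonist mode. Beta-lactamase reporter read as 460/530 nm FRET ratio after 2 hr substrate loading.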

[4] = qHTS assay to identify small molecule agonists of the sonic hedgehog signaling (Shh) pathway - cell viability counter screen (AID 1259366); details: NIH/3T3 Gli1-Luc viability, CellTiter-Fluor, 24 h; further: potency means the concentration at half of the fitted maximal effect; nearly all actives have a fitted effect of over 50% in size
Outline: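 NIH/3T3-derived Gli1-Luc reporter cells, 2,000 per well, received compound after 4 h and were treated about 23 h at 37C. Viability measured in the same wells by CellTiter-Fluor fluorescence after 1 h.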

[5] = target: Progesterone receptor (Homo sapiens) (UniProt P06401); experiment: qHTS assay to identify small molecule antagonists of the progesterone receptor (PR) signaling pathway (AID 1346795; active means well fitted inhibition curve with a large enough effect in the signal ratio in the repeat runs, not every such curve was filed as active; inconclusive means weak or mixed curves; the % refers to the signal ratio; further: on the % scale 0 is the no-effect control and ±100 the full control effect); details: PR-UAS-bla HEK293T, beta-lactamase FRET ratio, 16 h; activity change, negative = inhibition: at 92.4 µM (top of the series)
Outline: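 PR-UAS-bla HEK293T cells with beta-lactamase reporter under UAS control, in 2% charcoal-stripped FBS, treated with compounds plus 1 nM promegestone (R5020, final) for 16 hr at 37C. Read-out: FRET beta-lactamase substrate fluorescence after 2 hr at room temperature.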

[6] = qHTS assay to identify small molecule antagonists of the progesterone receptor (PR) signaling pathway - cell viability counter screen (AID 1346798); details: PR-UAS-bla HEK293T viability, CellTiter-Glo luminescence, 16 h; further: potency means the concentration at half of the fitted maximal effect; nearly all actives have a fitted effect of over 50% in size
Outline: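 PR-UAS-bla HEK293T cells, 3,000/well in 2% charcoal-stripped FBS medium, dosed with compounds plus R5020 agonist and incubated 16 h at 37C. Viability then measured in the same wells by CellTiter-Glo luminescence after 30 min at RT.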

[7] = target: Cytochrome P450 1A2 (Homo sapiens) (UniProt P05177); experiment: Cytochrome P450 Family 1 Subfamily A Member 2 (CYP1A2) small molecule antagonists: luciferase reporter qHTS assay (AID 1671199); details: P450-Glo CYP1A2 enzyme, luciferin luminescence, 1 h; further: potency means the concentration at half of the fitted maximal effect; nearly all actives have a fitted effect of over 50% in size
Source text: National Center for Advancing Translational Sciences [NCATS]
U.S. Environmental Protection Agency [EPA]
National Institutes of Environmental Health Sciences [NIEHS]
National Toxicology Program [NTP]
U.S. Food and Drug Administration [FDA]
Cytochrome P450 (CYP) enzymes are membrane-bound hemeproteins that play a key role in metabolism of drugs and xenobiotics. Evaluation of the effect of chemicals on CYP isozymes is useful to minimize the adverse drug reactions and toxicities in drug development process. Tox21 chemicals were tested for their effect on CYP enzyme activities by using P450-Glo (TM) screening systems (Promega Corporation, Madison, WI). These systems provide a luminescent method containing proluciferin substrates and are converted to luciferin products by CYP isozymes. The luciferin products formed are detected with a luciferin detection reagent, and the amount of light produced is proportional to CYP activity. P450-Glo (TM) CYP1A2 screening system (Catalog. No. V9770) was used to detect the compounds that interfere in CYP1A2 activity.
Tox21 Assay Protocol Summary:
Two ul of enzyme-substrate mix was dispensed into medium binding white/solid 1536-well plates (Greiner Bio-One North America Inc., Monroe, NC) using a BioRaptr Flying Reagent Dispenser (FRD, Beckman Coulter, Brea, CA). Compounds dissolved in DMSO and positive control (furafyllline) were transferred to the assay plates at 23 nl using a Pintool station (Wako, San Diego, CA). The assay plates were incubated at room temperature for 10 min. Then 2 ul of NADPH regeneration solution was added to each well of the assay plates using an FRD and incubated at room temperature for 1 h. The reaction was stopped by adding 4 ul of detection reagent using an FRD and after 20 min incubation at room temperature the luminescence signal was measured using a ViewLux plate reader (Perkin Elmer, Shelton, CT). Data were expressed as relative luminescence units.

[8] = target: Estrogen receptor (Homo sapiens) (UniProt P03372); experiment: qHTS assay to identify small molecule antagonists of the estrogen receptor alpha (ER-alpha) signaling pathway (AID 743069; active means well fitted curve in the direction sought with a large enough effect in the signal ratio in the repeat runs, not every such curve was filed as active; inconclusive means weak or mixed curves, or effect the other way; inactive means no such curve, though single readings can be large or run the other way; the % refers to the signal ratio; further: potency means the concentration at half of the fitted maximal effect); details: HEK293 ER-alpha-UAS-bla, beta-lactamase ratio, antagonist mode
Outline: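 Screening used a UAS-driven beta-lactamase reporter integrated into HEK293 cells expressing ER-alpha, stimulated with 17beta-estradiol alongside test compounds over 18 hr at 37C; signal came from LiveBLAzer B/G FRET fluorescence.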

[9] = qHTS assay for small molecule disruptors of the mitochondrial membrane potential (AID 720635); details: HepG2 mitochondrial membrane potential, Mito-MPS dye ratio; ratio activity, negative = MMP loss: at 83.2 µM (top of the series); further: potency means the concentration at half of the fitted maximal effect
Outline: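 HepG2 cells (2,000/well) attached overnight at 37C, then took compound for 1 hr at 37C, 5% CO2. Mito-MPS dye was added for 30 min; fluorescence was read at 490/535 nm (monomers) and 540/590 nm (aggregates).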

[10] = qHTS assay for identifying genotoxic compounds that show differential cytotoxicity against isogenic chicken DT40 cell lines with known DNA damage response pathways - wild type cell line (AID 743012); details: DT40 wild type chicken cells viability, CellTiter-Glo, 40 h; further: potency means the concentration at half of the fitted maximal effect; nearly all actives have a fitted effect of over 60% in size
Outline: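 300 wt DT40 cells/well; cpd (DMSO) pintool-transferred after ~0.5 h at 37 C/5% CO2; 40 h incubation; CellTiter-Glo added, 30 min RT; luminescence read.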

[11] = qHTS assay for identifying genotoxic compounds that show differential cytotoxicity against isogenic chicken DT40 cell lines with known DNA damage response pathways - Rad54/Ku70 mutant cell line (AID 743015); details: DT40 Rad54/Ku70 mutant viability, CellTiter-Glo, 40 h; further: potency means the concentration at half of the fitted maximal effect; nearly all actives have a fitted effect of over 60% in size
[12] = qHTS assay to identify small molecule antagonists of the thyroid receptor (TR) signaling pathway - cell viability counter screen (AID 743064); details: GH3.TRE-Luc viability, CellTiter-Fluor, 24 h
Outline: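 GH3.TRE-Luc rat pituitary cells dosed after 4 hr plating, co-stimulated with T3 at 1 nM final, incubated 23.5 h at 37 C. Viability measured in the same wells by CellTiter-Fluor fluorescence after 30 min further at 37 C.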

[13] = qHTS assay to identify small molecule antagonists of the estrogen receptor alpha (ER-alpha) signaling pathway using the BG1 cell line - cell viability counter screen (AID 743081); details: BG1Luc4E2 viability, CellTiter-Fluor, 22 h;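 further: compound given together with 17beta-estradiol as the ER stimulus; potency means the concentration at half of the fitted maximal effect; nearly all actives have a fitted effect of over 45% in size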
[14] = qHTS assay to identify aromatase inhibitors - cell viability counter screen (AID 743084); details: MCF-7 aro ERE viability, CellTiter-Fluor, 24 h;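 further: cells stimulated with testosterone during compound exposure; potency means the concentration at half of the fitted maximal effect; nearly all actives have a fitted effect of over 55% in size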
[15] = qHTS assay to identify small molecule antagonists of the estrogen related receptor (ERR) signaling pathway from Tox21 library - cell viability counter screen (AID 1224834); details: ERR reporter cells viability, CellTiter-Fluor, 17.5 h; further: potency means the concentration at half of the fitted maximal effect; nearly all actives have a fitted effect of over 30% in size
Outline: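 In this quantitative HTS format, ERR cells receive compounds in DMSO and are incubated for 17.5 h at 37 C. Live-cell protease activity is then detected with CellTiter-Fluor.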

[16] = qHTS assay to identify small molecule agonists of the estrogen receptor alpha (ER-alpha) signaling pathway in the presence of an antagonist - cell viability counter screen (AID 1259386); details: VM7Luc4E2 viability, CellTiter-Fluor fluorescence, 22 h;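 further: potency means the concentration at half of the fitted maximal effect; cells exposed to compounds for 22 h at 37 °C before the viability read; nearly all actives have a fitted effect of over 30% in size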
Outline: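 Steps: 5-day stripped-FBS culture; seed and incubate 24hr; add ICI-182,780 (10.0nM final); pin 15-point compound titration; incubate 22hr at 37C; add CellTiter-Fluor at 21hr; read fluorescence.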

[17] = Human pregnane X receptor (PXR) small molecule agonists, qHTS cell viability counter screen (AID 1346977); details: PXR-Luc HepG2 viability, CellTiter-Fluor, 24 h
Outline: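 PXR-Luc HepG2 cells (2,000/well, 5% charcoal-stripped FBS) preincubated 5 hr, then exposed to compounds 24 hr at 37 C. Viability read in the same wells by CellTiter-Fluor fluorescence, reagent added at 23 hr, 1 hr incubation.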

[18] = Caspase-3/7 induction in CHO-K1 cells by small molecules, qHTS cell viability counter screen (AID 1346979); details: CellTiter-Fluor fluorescence, 17 h; further: potency means the concentration at half of the fitted maximal effect; nearly all actives have a fitted effect of over 35% in size
Outline: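 Wild-type CHO-K1 cells (1,500/well) treated with compound after 5 h plating; after 16 h at 37C, viability read as CellTiter-Fluor fluorescence following 1 h reagent incubation, in the same wells as the caspase read.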

[19] = Caspase-3/7 induction in HepG2 cells by small molecules, qHTS cell viability counter screen (AID 1346981); details: CellTiter-Fluor fluorescence, 17 h; further: potency means the concentration at half of the fitted maximal effect; nearly all actives have a fitted effect of over 30% in size
Outline: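 The parent HepG2 line is plated at 2,000 cells per well and rested 5 hr before compound pinning from DMSO stocks. Following a 16-hr treatment at 37 C, a fluorogenic live-cell substrate (CellTiter-Fluor) reports viability after 1 hr.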

[20] = target: Nuclear receptor subfamily 1 group I member 2 (Homo sapiens) (UniProt O75469); experiment: Human pregnane X receptor (PXR) small molecule agonists, qHTS assay (AID 1346982); details: PXR-Luc HepG2, CYP3A4 luciferase reporter, 24 h; further: potency means the concentration at half of the fitted maximal effect; nearly all actives have a fitted effect of over 35% in size
Outline: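 After plating in 5% charcoal-stripped FBS and a 5 hr rest, PXR-Luc HepG2 cells received compounds in DMSO. Following 24 hr at 37 C, ONE-Glo was added and light output read.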

O=[N+]([O-])C(Cl)(Cl)Cl
inconclusive: Potency [1] 0.69 µM | Potency [2] 0.609 µM | Potency [3] 43.5 µM | Potency [4] 7.67 µM | activity change, negative = inhibition [5] 11% | Potency [6] 68.4 µM | Potency [7] 70.7 µM

CC(C)CCCCCCCOP(OCCCCCCCC(C)C)Oc1ccccc1
inconclusive: Potency [8] 24.5 µM

CN(C(=O)Cc1ccccc1)[C@H]1CC[C@@]2(CCCO2)C[C@@H]1N1CCCC1
inconclusive: Potency [9] 18.8 µM | Potency [10] 33.5 µM | Potency [11] 33.5 µM | Potency [12] 18.8 µM | Potency [13] 29.8 µM | Potency [14] 29.8 µM | Potency [15] 26.6 µM | Potency [16] 29.8 µM | Potency [17] 33.5 µM | Potency [18] 33.5 µM | Potency [19] 33.5 µM | Potency [20] 33.5 µM
